{"sequences": {"note": "Amino acid sequences for entries named in this document (tags omitted). A change or cut given only in a name is not applied to a line headed by its entry.", "UniProt Q9UNA4": "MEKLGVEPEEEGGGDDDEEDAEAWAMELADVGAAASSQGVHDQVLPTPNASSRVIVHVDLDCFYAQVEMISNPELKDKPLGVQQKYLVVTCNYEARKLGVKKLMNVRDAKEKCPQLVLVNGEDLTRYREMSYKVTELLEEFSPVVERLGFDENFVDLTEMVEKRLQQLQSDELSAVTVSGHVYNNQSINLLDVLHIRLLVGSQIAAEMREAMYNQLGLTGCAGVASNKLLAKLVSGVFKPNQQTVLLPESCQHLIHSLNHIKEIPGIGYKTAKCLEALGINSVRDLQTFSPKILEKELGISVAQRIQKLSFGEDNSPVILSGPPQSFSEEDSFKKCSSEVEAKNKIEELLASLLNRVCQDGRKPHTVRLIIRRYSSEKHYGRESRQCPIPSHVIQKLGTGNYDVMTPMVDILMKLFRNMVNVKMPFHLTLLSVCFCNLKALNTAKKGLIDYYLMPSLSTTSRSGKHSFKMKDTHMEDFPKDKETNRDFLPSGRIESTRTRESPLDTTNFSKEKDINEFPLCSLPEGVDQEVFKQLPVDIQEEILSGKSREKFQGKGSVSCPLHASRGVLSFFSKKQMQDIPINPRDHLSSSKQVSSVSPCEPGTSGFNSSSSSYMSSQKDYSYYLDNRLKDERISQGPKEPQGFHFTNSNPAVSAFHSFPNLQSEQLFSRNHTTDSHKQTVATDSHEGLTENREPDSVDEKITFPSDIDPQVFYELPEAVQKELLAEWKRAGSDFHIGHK"}, "source": "PubChem BioAssay AID588590", "about": "(National Center for Advancing Translational Sciences (NCATS), 2011)", "note": "The whole screen tested about 390,000 compounds, of which about 4,000 (1%) were called active. The inconclusive results got no clear call from the source; some entries with a clear call stand among them for comparison. Calls follow the shape of the dose curve; as a rule, active = well fitted inhibition curve with a large enough effect; inconclusive = small, poorly fitted or top-dose-only effect, or another doubt; inactive = no such curve, though single readings can be large or run the other way. Where the call is inconclusive, the potency comes from a doubtful curve fit. Potency is read from the fitted curve at half-maximal effect."}
{"target": "DNA polymerase iota (Homo sapiens) (UniProt Q9UNA4)", "assay": "qHTS for Inhibitors of Polymerase Iota", "settings": "Pol iota fluorescent replication assay, 10 min; series mostly up to 115 µM", "summary_of_the_method": "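Fluorescent replication assay read twice, at 0 min and 10 min after adding 50 nM (final) substrate. Enzyme (10 nM) and compounds were first incubated 15 min at room temperature; enzyme-free buffer wells were negative controls.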"}
{"smiles": "Cc1cc(C)nc(N/N=C/c2cn[nH]c2-c2ccccc2)n1", "Potency": "inconclusive: 2.24 µM [inhibitor, partial curve, poor fit]"}
{"smiles": "Cc1cccc(NC(=O)c2ccc([N+](=O)[O-])o2)n1", "Potency": "inconclusive: 22.4 µM [inhibitor, single point]"}
{"smiles": "O=C(CCC1N=C2c3ccccc3N=C(SCC(=O)Nc3ccccc3F)N2C1=O)NCc1ccco1", "note": "(configuration not stated)", "Potency": "inactive"}
{"smiles": "CC(=O)Nc1nonc1-c1nc2ccccc2n1N(C(C)=O)C(C)=O", "Potency": "inconclusive: 39.8 µM [inhibitor, partial curve, poor fit]"}
{"smiles": "CS(=O)(=O)N(CC(=O)NCc1ccco1)c1ccc2c(c1)OCO2", "Potency": "active: 70.8 µM"}
{"smiles": "COc1cc(-c2nnc(SCC(=O)O)n2-c2ccccc2)cc(OC)c1OC", "Potency": "inconclusive: 3.16 µM [inhibitor, partial curve, poor fit]"}
{"smiles": "CC1Cc2ccccc2N1C(=O)COC(=O)c1c2c(nc3ccccc13)CCCCC2", "note": "(configuration not stated)", "Potency": "inconclusive: 112 µM [inhibitor, partial curve, poor fit]"}
{"smiles": "COc1cc(-c2c(C#N)c(N)nc3c2c(C)nn3-c2ccc(C)c(C)c2)cc(OC)c1OC", "Potency": "inconclusive: 39.8 µM [inhibitor, single point]"}
{"smiles": "CC1CCc2c(sc(NC(=O)Cn3nnc(-c4ccc(C(F)(F)F)cc4)n3)c2C#N)C1", "note": "(configuration not stated)", "Potency": "inconclusive: 70.8 µM [inhibitor, partial curve]"}
{"smiles": "O=C(N/C=C/c1ccco1)NCc1ccccc1", "Potency": "inconclusive: 15.8 µM [inhibitor, full curve, poor fit]"}
{"smiles": "Cc1ccc(C)c(NC(=S)Nc2cccc3cnccc23)c1", "Potency": "inconclusive: 5.62 µM [inhibitor, full curve, poor fit]"}
{"smiles": "C[n+]1ccc(/C=C/c2ccc(C=S)cc2)c2ccccc21", "Potency": "active: 89.1 µM"}
{"smiles": "O=C(Nc1nc(-c2cccs2)cs1)c1ccco1", "Potency": "inconclusive: 28.2 µM [inhibitor, single point]"}
{"smiles": "COc1ccc(/C=C/C(=O)OCC(=O)Nc2ccc(C)cc2)cc1S(=O)(=O)N1CCOCC1", "Potency": "inconclusive: 89.1 µM [inhibitor, single point]"}
{"smiles": "CCN1CCN(c2ncc3c(n2)CC(c2cc(OC)c(OC)c(OC)c2)CC3=O)CC1", "note": "(configuration not stated)", "Potency": "inconclusive: 22.4 µM [inhibitor, single point]"}
{"smiles": "O=C(CSc1nnc(NC(=O)c2c(F)cccc2F)s1)NCc1ccc(F)cc1", "Potency": "inactive"}
{"smiles": "C[C@@H]1C[C@H]2[C@@H]3CCC4=CC(=O)C=C[C@]4(C)[C@@]3(Cl)[C@@H](O)C[C@]2(C)[C@@]1(OC(=O)c1ccco1)C(=O)CCl", "Potency": "inconclusive: 17.8 µM [inhibitor, full curve]"}
{"smiles": "CCOc1ccc(NC(=O)c2ccc3c(SCC(=O)O)c4c(nc3c2)CCC4)cc1", "Potency": "inconclusive: 70.8 µM [inhibitor, single point]"}
{"smiles": "COc1ccc(OC)c(C2c3c(-c4ccc(Br)cc4)n[nH]c3C(=O)N2c2ccc(Cl)cc2)c1", "note": "(configuration not stated)", "Potency": "inactive"}
{"smiles": "CC1(C)Cc2[nH]c(=S)c(C#N)cc2CO1", "Potency": "inconclusive: 12.6 µM [inhibitor, single point]"}
{"smiles": "Cc1ccc(C(=O)C(C(=O)/C=C/c2ccccc2)=C2SCCCS2)cc1", "Potency": "inconclusive: 3.16 µM [inhibitor, single point]"}
{"smiles": "CN1CCCN(C(c2ccccc2)c2ccc(Cl)cc2)CC1", "note": "(configuration not stated)", "Potency": "inconclusive: 56.2 µM [inhibitor, partial curve, poor fit]"}
{"smiles": "CCn1c(SCC(=O)OCC(=O)N2c3ccccc3NC(=O)C2(C)C)nnc1-c1ccco1", "Potency": "inactive"}
{"smiles": "c1nc(SSc2ncnc3nc[nH]c23)c2[nH]cnc2n1", "Potency": "inconclusive: 31.6 µM [inhibitor, single point]"}
{"smiles": "COCCCNC(=O)c1c(NC(=O)C2COc3ccccc3O2)sc2c1CCCC2", "note": "(configuration not stated)", "Potency": "inconclusive: 39.8 µM [inhibitor, partial curve, poor fit]"}
{"smiles": "CCc1nnc(NC(=O)CSc2ncnc3c2cnn3-c2ccc(OC)cc2)s1", "Potency": "inconclusive: 56.2 µM [inhibitor, partial curve, poor fit]"}
{"smiles": "CC1=C(C#N)C(c2ccoc2)C(C(=O)OCc2ccccc2)=C(N)S1", "note": "(configuration not stated)", "Potency": "inconclusive: 10 µM [inhibitor, full curve, poor fit]"}
{"smiles": "Cc1ccc(NS(=O)(=O)c2ccc3nc(-c4ccccc4)[nH]c3c2)cc1Cl", "Potency": "inconclusive: 63.1 µM [inhibitor, partial curve, poor fit]"}
{"smiles": "COc1c(Br)cc(/C=N/n2c(-c3ccccc3)n[nH]c2=S)c(O)c1Br", "Potency": "inconclusive: 2.82 µM [inhibitor, full curve, poor fit]"}
{"smiles": "Cc1nc(N2CCN(c3ccccc3O)CC2)c2c(-c3ccccc3)csc2n1", "Potency": "inconclusive: 15.8 µM [inhibitor, partial curve, poor fit]"}
{"smiles": "O=c1c2c(nc3cc(-c4ccc(F)cc4)[nH]n13)CCCC2", "Potency": "inconclusive: 112 µM [inhibitor, partial curve, poor fit]"}
{"smiles": "COc1ccc(COC(=O)Nc2cc3c(C(F)(F)F)nn(C)c3s2)cc1", "Potency": "inconclusive: 31.6 µM [inhibitor, single point]"}
{"smiles": "CCOC(=O)N1CCN(C(=O)Cc2ccc(-n3c(=S)[nH]c4ccccc4c3=O)cc2)CC1", "Potency": "inconclusive: 3.55 µM [inhibitor, partial curve, poor fit]"}
{"smiles": "CNC[C@@H](C)NC[C@@H](Cc1ccccc1)NCCc1ccccc1", "Potency": "inconclusive: 44.7 µM [inhibitor, partial curve, poor fit]"}
{"smiles": "COc1cc(NC(=O)CSc2cc(=O)n(C)c3ccccc23)cc(OC)c1OC", "Potency": "inactive"}
{"smiles": "CC(NCc1ccc2c(c1)n(C)c(=O)n2C)c1ccccc1", "note": "(configuration not stated)", "Potency": "inactive"}
{"smiles": "COc1ccc(C(=O)COC(=O)c2ccc([N+](=O)[O-])s2)cc1OC", "Potency": "inconclusive: 70.8 µM [inhibitor, partial curve, poor fit]"}
{"smiles": "O=C(Nc1ccc(F)c(F)c1)C1CCCN1S(=O)(=O)c1ccc(F)cc1", "note": "(configuration not stated)", "Potency": "inconclusive: 12.6 µM [inhibitor, partial curve, poor fit]"}
{"smiles": "Cc1nc2c(-c3ccccc3)c(C)nn2c(N)c1-c1ccccc1", "Potency": "inconclusive: 22.4 µM [inhibitor, single point]"}
{"smiles": "CCOC(=O)c1sc(NC(=O)c2ccco2)nc1-c1ccccc1", "Potency": "inconclusive: 100 µM [inhibitor, single point]"}
{"smiles": "CSc1ccc(/C=N/NC(=O)c2cc(O)cc(O)c2)cc1", "Potency": "inactive"}
{"smiles": "CC(=O)Nc1cccc(OCCCOc2ccc([N+](=O)[O-])cc2)c1", "Potency": "inconclusive: 79.4 µM [inhibitor, single point]"}
{"smiles": "Nc1nc(N2CCN(c3ccccn3)CC2)nc2ccccc12", "Potency": "inconclusive: 20 µM [inhibitor, full curve, poor fit]"}
{"smiles": "Cc1ccc(S(=O)(=O)Nc2ccc(Br)cc2/C=N/n2cnnc2)cc1", "Potency": "inconclusive: 10 µM [inhibitor, full curve, poor fit]"}
{"smiles": "Cc1ccc(S(=O)(=O)N2[C@@H](c3ccc(F)cc3)C(C(=O)O)=CC[C@H]2c2ccc(C(C)C)cc2)cc1", "Potency": "inconclusive: 39.8 µM [inhibitor, single point]"}
{"smiles": "COc1ccc(/C=C(\\C#N)C(=O)NCc2ccccc2)cc1O", "Potency": "inconclusive: 7.94 µM [inhibitor, partial curve]"}
{"smiles": "CC1=NOC(=O)/C1=C\\c1ccc(-c2cccc(Cl)c2)o1", "Potency": "inconclusive: 15.8 µM [inhibitor, partial curve, poor fit]"}
{"smiles": "N=C(N)SCc1ccc(Cl)cc1Cl", "Potency": "inconclusive: 100 µM [inhibitor, single point]"}
{"smiles": "Cc1nc(N2CCCCC2)c2c(C)c(C(=O)Nc3ccc4c(c3)OCCO4)sc2n1", "Potency": "inconclusive: 63.1 µM [inhibitor, partial curve, poor fit]"}
{"smiles": "COC(=O)c1ccc(C(=O)Nc2ccc(F)cc2)cc1", "Potency": "inconclusive: 35.5 µM [inhibitor, single point]"}
{"smiles": "COc1ccc(NC(=O)COc2ccccc2C(=O)NCC(c2ccccc2)N(C)C)cc1Cl", "note": "(configuration not stated)", "Potency": "inconclusive: 79.4 µM [inhibitor, partial curve, poor fit]"}
{"smiles": "COc1ccc(-c2nc3ccccc3o2)cc1NC(=O)c1cccc2c(Cl)cccc12", "Potency": "inconclusive: 17.8 µM [inhibitor, partial curve]"}
{"smiles": "CC(C)C[C@H](NC(=O)c1nc[nH]c1C(=O)NC(c1ccccc1)c1ccccc1)C(=O)OC(C)(C)C", "Potency": "inconclusive: 50.1 µM [inhibitor, partial curve, poor fit]"}
{"smiles": "O=C1NC(=O)/C(=C\\c2ccc(OCc3ccccc3)cc2)S1", "Potency": "inconclusive: 3.16 µM [inhibitor, full curve, poor fit]"}
{"smiles": "CCCC(=O)Nc1nnc(SCC(=O)NCc2ccco2)s1", "Potency": "inactive"}
{"smiles": "CS(=O)(=O)N1CCCC(C(=O)NCCc2ccccc2)C1", "note": "(configuration not stated)", "Potency": "inconclusive: 56.2 µM [inhibitor, full curve]"}
{"smiles": "CCOc1ccc(NC(=O)CCc2c(C)nc3c4c(C)cc(C)nc4nn3c2C)cc1", "Potency": "inactive"}
{"smiles": "COCCCNC(=S)NNC(=O)c1csc(C)n1", "Potency": "inconclusive: 20 µM [inhibitor, partial curve, poor fit]"}
{"smiles": "Cc1onc(-c2ccccc2)c1C(=O)N/N=C/c1ccco1", "Potency": "inconclusive: 28.2 µM [inhibitor, full curve, poor fit]"}
{"smiles": "CCCN(Cc1cccs1)C(=O)Nc1cc(C)cc(C)c1", "Potency": "inactive"}
{"smiles": "COc1ccc(-c2nnc(CSc3nc4ccccc4c(=O)n3C)o2)cc1OC", "Potency": "inconclusive: 79.4 µM [inhibitor, partial curve, poor fit]"}
{"smiles": "C/C=C/C=C\\C(=O)Nc1cccc(C2=NOC3(C2)C[C@H](C(N)=O)N(C(=O)/C=C/C)C3)c1", "note": "(some centres not stated)", "Potency": "inconclusive: 22.4 µM [inhibitor, full curve, poor fit]"}
